According to patent US20080008745A1, “Transdermal delivery of naltrexone hydrochloride, naltrexol hydrochloride, and bis(hydroxy-methyl)propionyl-3-0 ester naltrexone using microneedles” (UNIVERSITY OF KENTUCKY RESEARCH FOUNDATION, priority 2006, published 2008):
Counter-ions that a name gives are not always drawn. At least one read-out could not be matched to a standard name with certainty.

Assay: Solubility in 3:1 PG:Hanks' buffer
Assay type: physicochemical
Procedure: An excess of Naltrexone HCl (˜350 mg) was added to 1 mL of 3:1 PG:Hanks' buffer. The saturated solution was then vortexed for 1 min, sonicated for 15 min, and placed in an incubator at 32° C. for 24 h while shaking on a belly shaker. Just before filtering, a glass syringe and 0.45 μm filter were heated in an incubator to 32° C. The solution was filtered and diluted with ACN for high pressure liquid chromatography (HPLC) analysis.

## O=C1CC[C@@]2(O)[C@H]3Cc4ccc(O)c5c4[C@@]2(CCN3CC2CC2)[C@H]1O5 [NTX-HCl, Naltrexone Hydrochloride]
  Increase of solubility of hydrochloride salt over base form: 18.2 times
